Results reported in article PMC6896172, “Successful Targeting of the Warburg Effect in Prostate Cancer by Glucose-Conjugated 1,4-Naphthoquinones” (Cancers, 2019).
The source gives many values for each of these; only a part stands here.

System: 22Rv1 cells
Test: Global proteome analysis (LC-MS/MS, DIA) of differentially expressed proteins
Assay type: cell-based, human
Protocol: 22Rv1 cells were seeded in T75 culture bottles (4 × 10^6 cells/bottle in 20 mL/bottle), treated for 48 h with the 5 µM of compound 11 or vehicle (DMSO), harvested by scratching, washed twice with ice-cold PBS and flash-frozen. Cells were lysed and sonicated. The protein extracts were then heat-denaturated, reduced, alkylated and digested by trypsin. Peptides were chromatographically separated using full recovery autosampler vials and a nano-UPLC system (Acquity, Waters Corporation, Milford, MS, USA), coupled via electrospray ionization (ESI) to a tandem mass spectrometer equipped with a quadrupole and an orbitrap (QExactive, Thermo Fisher Scientific, Bremen, Germany), using MS/MS mode in data dependent acquisition (DDA) and data independent acquisition (DIA). The peptides, analyzed with DDA-LC-MS/MS, were identified with the search engine Sequest, integrated in the Proteome Discoverer software version 2.0 (Thermo Fischer Scientific) using the human Uniprot protein database (EMBL; Hinxton Cambridge, UK, release December 2018). […] For the details of sample preparation and proceeding, data acquisition and analysis see the Supplementary information. […]
serum (FBS, Invitrogen) and 1% penicillin/streptomycin (Invitrogen)). […]
Cell lines were lysed in 100 mM triethylammonium bicarbonate and 1% w/v sodium deoxycholate buffer followed by probe sonication to destroy polynucleotides and heat induce protein denaturing at 99 °C for 5 min. Protein concentrations were estimated with a bicinchonic acid (BCA) protein assay (Thermo Fisher Scientific, Bremen, Germany). 20 µg of protein were reduced in presence of 10 mM dithiotreithol (Sigma Aldrich) for 30 min at 60 °C followed by cysteine alkylation with 20 mM iodo acetamide (Sigma Aldrich) for 30 min at 37 °C in the dark and enzymatic degradation with sequencing grade trypsin (Promega) over night at 37 °C. Digestion was quenched with 1% formic acid (FA), precipitated sodium deoxycholate removed by centrifugation for 5 min at 14,000 g and the supernatant was dried in a vacuum centrifuge.
LC-MS/MS in Data Dependent and Data Independent Mode
Samples were resuspended in 0.1% FA and transferred into a full recovery autosampler vial (Waters). Chromatographic separation was achieved on a nano -UPLC system (Acquity, Waters Corporation, Milford, MS, USA) with a two-buffer-system (buffer A: 0.1% FA in water, buffer B:
0.1% FA in Acetonitrile (ACN), both at pH = 3). Attached to the UPLC was a reversed -phase peptide trapping column (Symmetry C18, 180 µm × 20 mm, 100 Å pore size, 5 µm particle size) for desalting, followed by a reversed-phase capillary separation of the tryptic peptides (BEH C18; 75 µm × 200 mm, 130 Å pore size, 1.7 µm particle size), using a 60 min gradient with increasing ACN concentration from 2–30% ACN. The eluting peptides were analyzed on a quadrupole-orbitrap mass spectrometer (QExactive, Thermo Fisher Scientific, Bremen, Germany) in data dependent acquisition (DDA) and data independent acquisition (DIA) for quantification.
In DDA mode, one replicate of each cell line was randomly chosen and 1 µg per sample was used per LC-MS/MS run to build a reference spectral library used for data extraction of samples acquired in DIA mode. For DDA, the 12 most intense ions per precursor scan (1 × 10 6 ions, 70,000 Resolution, 120 ms fill time) were analyzed by MS/MS (HCD at 25 normalized collision energy, 1 × 105 ions, 17,500 Resolution, 50 ms fill time) in a range of 400–1300 m/z. A dynamic precursor exclusion of 20 s was used. For DIA, 1 µg of each sample was analyzed using a 30 sequential 20 Da fixed window method covering the mass range from 400 –1000 m/z. Per cycle, 2 precursor scans (1 × […]
28 normalized collision energy, 1 × 106 ions, 17,500 Resolution, 50 ms fill time) were performed.
After the first precursor scan, 15 MS/MS scans were performed covering the precursor mass range from 400–700 m/z followed by the second precursor scan and another 15 MS/MS scans ranging from […]
LC-MS/MS Data Processing and Analysis […]

CC1(C)OC2OC(C(O)COC3=CC(=O)c4cccc(O)c4C3=O)C(O)C2O1 (stereo not drawn) [Compound 11]
Fold change (treated / control) (PDIA6_HUMAN Q15084): 1.177 | Fold change (treated / control) (PDIP3_HUMAN Q9BY77): 0.4965 | Fold change (treated / control) (PDLI5_HUMAN Q96HC4): 1.529 | Fold change (treated / control) (PDS5A_HUMAN Q29RF7): 0.5949 | Fold change (treated / control) (PEA15_HUMAN Q15121): 1.421 | Fold change (treated / control) (PEF1_HUMAN Q9UBV8): 1.633 | Fold change (treated / control) (PESC_HUMAN O00541): 0.4845 | Fold change (treated / control) (PGAM1_HUMAN P18669): 1.273 | Fold change (treated / control) (PGK1_HUMAN P00558): 1.461 | Fold change (treated / control) (PGRC1_HUMAN O00264): 1.229 | Fold change (treated / control) (PHB_HUMAN P35232): 1.154 | Fold change (treated / control) (PIMT_HUMAN P22061): 1.252 | Fold change (treated / control) (PIN1_HUMAN Q13526): 0.8459 | Fold change (treated / control) (PLAK_HUMAN P14923): 0.7459 | Fold change (treated / control) (PLEC_HUMAN Q15149): 0.7645 | Fold change (treated / control) (PLST_HUMAN P13797): 1.7894 | Fold change (treated / control) (PMYT1_HUMAN Q99640): 0.2195 | Fold change (treated / control) (PNPH_HUMAN P00491): 1.581 | Fold change (treated / control) (PNPT1_HUMAN Q8TCS8): 0.8319 | Fold change (treated / control) (PO210_HUMAN Q8TEM1): 0.7212 | Fold change (treated / control) (PP2BA_HUMAN Q08209): 1.405 | Fold change (treated / control) (PPCE_HUMAN P48147): 1.185 | Fold change (treated / control) (PPIA_HUMAN P62937): 1.352 | Fold change (treated / control) (PPIC_HUMAN P45877): 0.8138 | Fold change (treated / control) (PPIH_HUMAN O43447): 1.279 | Fold change (treated / control) (PPIL1_HUMAN Q9Y3C6): 1.335 | Fold change (treated / control) (PR40A_HUMAN O75400): 1.476 | Fold change (treated / control) (PRDX1_HUMAN Q06830): 1.873 | Fold change (treated / control) (PRDX2_HUMAN P32119): 1.3427 | Fold change (treated / control) (PRDX3_HUMAN P30048): 1.171 | Fold change (treated / control) (PRDX5_HUMAN P30044): 1.226 | Fold change (treated / control) (PRKDC_HUMAN P78527): 0.7563 | Fold change (treated / control) (PROF1_HUMAN P07737): 1.37 | Fold change (treated / control) (PROF2_HUMAN P35080): 1.625 | Fold change (treated / control) (PRP19_HUMAN Q9UMS4): 0.7043 | Fold change (treated / control) (PRS6A_HUMAN P17980): 1.387 | Fold change (treated / control) (PRS6B_HUMAN P43686): 1.428 | Fold change (treated / control) (PRS7_HUMAN P35998): 1.348 | Fold change (treated / control) (PRS10_HUMAN P62333): 1.155 | Fold change (treated / control) (PSA1_HUMAN P25786): 1.304 | Fold change (treated / control) (PSA2_HUMAN P25787): 2.482 | Fold change (treated / control) (PSA3_HUMAN P25788): 1.56 | Fold change (treated / control) (PSA4_HUMAN P25789): 1.56 | Fold change (treated / control) (PSA6_HUMAN P60900): 1.4837 | Fold change (treated / control) (PSA7_HUMAN O14818): 1.482 | Fold change (treated / control) (PSB2_HUMAN P49721): 0.8786 | Fold change (treated / control) (PSB4_HUMAN P28070): 1.588 | Fold change (treated / control) (PSD11_HUMAN O00231): 1.222 | Fold change (treated / control) (PSDE_HUMAN O00487): 1.875 | Fold change (treated / control) (PSMD1_HUMAN Q99460): 1.296 | Fold change (treated / control) (PSMD8_HUMAN P48556): 1.59 | Fold change (treated / control) (PSPC1_HUMAN Q8WXF1): 0.7106 | Fold change (treated / control) (PTH2_HUMAN Q9Y3E5): 1.56 | Fold change (treated / control) (PUF60_HUMAN Q9UHX1): 1.257 | Fold change (treated / control) (PUR9_HUMAN P31939): 1.1359 | Fold change (treated / control) (PYC_HUMAN P11498): 0.7167 | Fold change (treated / control) (PYR1_HUMAN P27708): 0.8386 | Fold change (treated / control) (QOR_HUMAN Q08257): 1.525 | Fold change (treated / control) (RAB1A_HUMAN P62820): 1.099 | Fold change (treated / control) (RAB7A_HUMAN P51149): 1.361 | Fold change (treated / control) (RAB10_HUMAN P61026): 1.293 | Fold change (treated / control) (RAB13_HUMAN P51153): 0.5414 | Fold change (treated / control) (RAB14_HUMAN P61106): 1.096 | Fold change (treated / control) (RAB18_HUMAN Q9NP72): 1.399 | Fold change (treated / control) (RBM3_HUMAN P98179): 0.4156 | Fold change (treated / control) (RBM15_HUMAN Q96T37): 0.6754 | Fold change (treated / control) (RFC1_HUMAN P35251): 0.5451 | Fold change (treated / control) (RFC2_HUMAN P35250): 0.5826 | Fold change (treated / control) (RFC3_HUMAN P40938): 0.567 | Fold change (treated / control) (RFC4_HUMAN P35249): 0.5722 | Fold change (treated / control) (RFC5_HUMAN P40937): 0.6148 | Fold change (treated / control) (RGF1B_HUMAN Q0VAM2): 2.251 | Fold change (treated / control) (RHG01_HUMAN Q07960): 1.41 | Fold change (treated / control) (RL1D1_HUMAN O76021): 0.6228 | Fold change (treated / control) (RL4_HUMAN P36578): 0.563 | Fold change (treated / control) (RL5_HUMAN P46777): 0.7312 | Fold change (treated / control) (RL7A_HUMAN P62424): 0.6916 | Fold change (treated / control) (RL8_HUMAN P62917): 0.705 | Fold change (treated / control) (RL10A_HUMAN P62906): 0.5923 | Fold change (treated / control) (RL13_HUMAN P26373): 0.6224 | Fold change (treated / control) (RL15_HUMAN P61313): 0.6202 | Fold change (treated / control) (RL18_HUMAN Q07020): 0.4989 | Fold change (treated / control) (RL19_HUMAN P84098): 0.3072 | Fold change (treated / control) (RL21_HUMAN P46778): 0.7748 | Fold change (treated / control) (RL22_HUMAN P35268): 1.3987 | Fold change (treated / control) (RL23_HUMAN P62829): 0.6468 | Fold change (treated / control) (RL24_HUMAN P83731): 0.7258 | Fold change (treated / control) (RL27A_HUMAN P46776): 0.6191 | Fold change (treated / control) (RL29_HUMAN P47914): 0.5022 | Fold change (treated / control) (RL31_HUMAN P62899): 0.4309 | Fold change (treated / control) (RL36L_HUMAN Q969Q0): 0.4658 | Fold change (treated / control) (RLA1_HUMAN P05386): 1.316 | Fold change (treated / control) (RM16_HUMAN Q9NX20): 0.5171 | Fold change (treated / control) (RM17_HUMAN Q9NRX2): 0.5436 | Fold change (treated / control) (RM19_HUMAN P49406): 0.6745 | Fold change (treated / control) (RM37_HUMAN Q9BZE1): 0.5246 | Fold change (treated / control) (RM45_HUMAN Q9BRJ2): 0.6189 | Fold change (treated / control) (RO60_HUMAN P10155): 1.579 | Fold change (treated / control) (ROA1_HUMAN P09651): 0.6844 | Fold change (treated / control) (RPA34_HUMAN O15446): 0.6508 | Fold change (treated / control) (RPAB4_HUMAN P53803): 0.7108 | Fold change (treated / control) (RPAB5_HUMAN P62875): 0.5655
